This assay deals with LptC^AA (E. coli), periplasmic domain LptC(25-191) Y60A R61A (E. coli (ATCC 25922)) (UniProt P0ADV9). Briefly: SEC-MALS; purified Lpt proteins and their mixtures (figs. S4 and S5); both purified. (In general: SEC sorts molecules by how far they enter the pores of the column.)

This note sets out measurements from PMC10208570, “Peptidomimetic antibiotics disrupt the lipopolysaccharide transport bridge of drug-resistant Enterobacteriaceae” (Science Advances, 2023).

Results are given in words; binding and its absence hold for the method and conditions named.

Regarding “LptC^AA (E. coli), periplasmic domain LptC(25-191) Y60A R61A (from UniProt P0ADV9 25-191) (domain or fragment)”, the binding entry is on record as “no binding”.
